Source: patent US6949584B2, “TNP-470 species, polymer conjugates and use thereof” (Children's Medical Center Corporation, priority 2002, dated 2005)
Some results were stated once for a whole list of compounds, not compound by compound.

System: BCE cells
Assay: Bovine capillary endothelial (BCE) cell proliferation assay
Conditions: 72 h

CO[C@@H]1[C@H](OC(=O)NC(=O)CCl)CC[C@]2(CO2)[C@H]1[C@@]1(C)O[C@@H]1CC=C(C)C [TNP-470, O-(chloracetyl-carbamoyl) fumagillol]
doses with cytostatic effect on bFGF-induced proliferation: lower than 1 μg/ml
